PubChem BioAssay AID1259254, NCATS | 2017

Purpose: 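Genome-wide screen for genes that prevent DNA re-replication in cancer cells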 (primary screen)
Cell system: human HCT116 colorectal cancer cells
Reagents: single siRNA against human genes
Timing: 3 days
Read-out: 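Imaged Hoechst DNA stain sorts each cell into a cycle phase by DNA amount; per plate, G2 fraction set to 0% for non-targeting and 100% for GMNN siRNA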
Reading the numbers: G2 robust z-score: higher = more G2 cells, more excess DNA replication
Call rule: 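Active siRNAs have a G2 robust z of 5 or more median absolute deviations over the median, which in these data means about 38% or higher of GMNN control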
The deposit covers about 59,000 reagents; shown is an unselected part. About 1,550 of them (2.6%) were called active. 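G2 share is only a proxy for re-replication; each gene was hit by three separate siRNAs, and active genes were retested.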 Reagents against one gene are numbered here. Further read-outs or replicates are left out here. Reagent sequences are not shown. The record does not give: the amount of reagent.

gene	reagent no.	G2 robust z-score	outcome
KRTAP20-1	1	4.12	inactive
KRTAP20-1	2	0.735	inactive
KRTAP20-1	3	1.12	inactive
MEF2C	1	-0.474	inactive
MEF2C	2	-1.28	inactive
MEF2C	3	-0.317	inactive
TRIM63	1	-0.957	inactive
TRIM63	2	0.167	inactive
TRIM63	3	1.77	inactive
MRPL41	1	0.713	inactive
MRPL41	2	0.77	inactive
MRPL41	3	-0.142	inactive
ANXA1	1	0.31	inactive
ANXA1	2	0.0579	inactive
ANXA1	3	-0.172	inactive
GAB3	1	-0.943	inactive
GAB3	2	3.36	inactive
GAB3	3	-0.305	inactive
CFAP206	1	1.42	inactive
CFAP206	2	0.149	inactive
CFAP206	3	0.871	inactive
FERMT2	1	3.09	inactive
FERMT2	2	0.0227	inactive
FERMT2	3	7.38	active
CHRNA3	1	3.42	inactive
CHRNA3	2	-0.0626	inactive
CHRNA3	3	-0.516	inactive
KDM5B	1	0.39	inactive
KDM5B	2	-1.16	inactive
KDM5B	3	2.03	inactive
CLEC4E	1	-0.368	inactive
CLEC4E	2	2.35	inactive
CLEC4E	3	4.33	inactive
CD82	1	-0.208	inactive
CD82	2	-1.16	inactive
CD82	3	-0.508	inactive
ZBTB33	1	0.654	inactive
ZBTB33	2	0.0593	inactive
ZBTB33	3	-0.00794	inactive

The list goes on (9 carried over from the part before).
gene	reagent no.	G2 robust z-score	outcome
CLEC4E	1	-0.368	inactive
CLEC4E	2	2.35	inactive
CLEC4E	3	4.33	inactive
CD82	1	-0.208	inactive
CD82	2	-1.16	inactive
CD82	3	-0.508	inactive
ZBTB33	1	0.654	inactive
ZBTB33	2	0.0593	inactive
ZBTB33	3	-0.00794	inactive
EGR2	1	-0.626	inactive
EGR2	2	-0.0319	inactive
EGR2	3	-0.981	inactive
APOH	1	0.212	inactive
APOH	2	1.48	inactive
APOH	3	2.46	inactive
RAB1A	1	4.17	inactive
RAB1A	2	-0.565	inactive
RAB1A	3	0.211	inactive
ARSJ	1	5.24	active
ARSJ	2	0.529	inactive
ARSJ	3	1.44	inactive
SRD5A3	1	0.882	inactive
SRD5A3	2	0.775	inactive
SRD5A3	3	2.66	inactive
S100A7A	1	0.929	inactive
S100A7A	2	-0.231	inactive
S100A7A	3	1.05	inactive
FABP5P1	1	1.77	inactive
FABP5P1	2	1.44	inactive
FABP5P1	3	-0.854	inactive
MIR924HG	1	-0.723	inactive
MIR924HG	2	0.144	inactive
MIR924HG	3	-0.254	inactive
YEATS2	1	1.88	inactive
YEATS2	2	-1.09	inactive
YEATS2	3	-0.0246	inactive
CLDN18	1	-0.631	inactive
CLDN18	2	0.103	inactive
CLDN18	3	-0.845	inactive
TFAP2E	1	-0.442	inactive
TFAP2E	2	0.469	inactive
TFAP2E	3	0.622	inactive
RSPH1	1	-0.823	inactive
RSPH1	2	-0.401	inactive
RSPH1	3	-0.377	inactive
TXNDC17	1	2.47	inactive
TXNDC17	2	-0.079	inactive
TXNDC17	3	-0.184	inactive
SOWAHB	1	-0.245	inactive
SOWAHB	2	0.627	inactive
SOWAHB	3	-0.657	inactive
GOPC	1	0.00401	inactive
GOPC	2	-0.396	inactive
GOPC	3	-0.285	inactive
CCK	1	-0.642	inactive
CCK	2	-0.823	inactive
CCK	3	-0.054	inactive
